Results reported in PMC2953525, “Subtle Alterations in PCNA-Partner Interactions Severely Impair DNA Replication and Repair” (PLoS Biology, 2010).
Results are given in words; binding and its absence hold for the method and conditions named. Some binding calls cover weakened binding; strength is not graded here.

Columns and labels:
Experiment in all cases: two-hybrid; pAD-GAL4-PCNA WT or mutant (called bait) and pBD-GAL4-partner (called prey) in strain YRG2; 10-fold serial dilutions spotted on SC-Leu-Trp-His plates, 30°C, 3 d; growth similar to WT PCNA is denoted 1
pol30-Msh6E2 = target: T1, pol30-Msh6E2 (yeast, UniProt P15873 1-258, IDCL DIDADFLKIEEL to DYDRDMLKISEL)
T1 construct: PCNA (POL30), yeast; source: yeast two-hybrid fusion (pAD-GAL4, strain YRG2)
T1 sequence: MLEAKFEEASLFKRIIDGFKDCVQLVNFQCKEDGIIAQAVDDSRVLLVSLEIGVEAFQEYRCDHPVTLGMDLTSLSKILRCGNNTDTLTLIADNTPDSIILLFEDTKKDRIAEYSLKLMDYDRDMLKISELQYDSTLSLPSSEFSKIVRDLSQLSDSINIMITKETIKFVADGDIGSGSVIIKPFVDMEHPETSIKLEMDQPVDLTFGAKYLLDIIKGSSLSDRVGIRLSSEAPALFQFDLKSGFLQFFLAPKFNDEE

pol30-Msh6E6 = target: T2, pol30-Msh6E6 (yeast, UniProt P15873 1-258, IDCL DIDADFLKIEEL to DYDKDLLKIIEL)
T2 construct: PCNA (POL30), yeast; source: yeast two-hybrid fusion (pAD-GAL4, strain YRG2)
T2 sequence: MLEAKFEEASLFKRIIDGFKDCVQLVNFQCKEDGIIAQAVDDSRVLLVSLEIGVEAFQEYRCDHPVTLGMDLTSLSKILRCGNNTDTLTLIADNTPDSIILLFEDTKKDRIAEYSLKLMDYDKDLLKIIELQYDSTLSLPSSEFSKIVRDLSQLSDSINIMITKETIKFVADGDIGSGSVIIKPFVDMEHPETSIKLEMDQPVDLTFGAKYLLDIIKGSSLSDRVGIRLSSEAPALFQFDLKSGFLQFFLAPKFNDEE

pol30-Rad27L1 = target: T3, pol30-Rad27L1 (yeast, UniProt P15873 1-258, IDCL DIDADFLKIEEL to D––VDILKIGEL)
T3 construct: PCNA (POL30), yeast; two residues after the first aspartic acid of the IDCL are deleted; source: yeast two-hybrid fusion (pAD-GAL4, strain YRG2)
T3 sequence: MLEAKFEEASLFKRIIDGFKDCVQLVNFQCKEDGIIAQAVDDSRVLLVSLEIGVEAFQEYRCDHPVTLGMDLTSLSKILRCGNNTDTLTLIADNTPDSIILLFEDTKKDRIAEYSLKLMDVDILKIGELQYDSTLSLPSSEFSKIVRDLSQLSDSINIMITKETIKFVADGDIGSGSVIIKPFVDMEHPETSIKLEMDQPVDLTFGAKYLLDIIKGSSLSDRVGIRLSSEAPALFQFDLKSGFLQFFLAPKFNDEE

pol30-Pol32E9 = target: T4, pol30-Pol32E9 (yeast, UniProt P15873 1-258, IDCL DIDADFLKIEEL to DNDVDSLKIIEL)
T4 construct: PCNA (POL30), yeast; source: yeast two-hybrid fusion (pAD-GAL4, strain YRG2)
T4 sequence: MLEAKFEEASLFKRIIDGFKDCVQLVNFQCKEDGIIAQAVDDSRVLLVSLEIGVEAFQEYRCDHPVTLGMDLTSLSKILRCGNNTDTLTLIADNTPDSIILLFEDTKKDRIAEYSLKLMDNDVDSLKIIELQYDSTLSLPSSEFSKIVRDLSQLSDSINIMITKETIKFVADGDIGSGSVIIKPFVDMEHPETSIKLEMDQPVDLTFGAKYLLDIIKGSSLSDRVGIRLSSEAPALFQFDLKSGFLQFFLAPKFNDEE

pol30-Ung1E3 = target: T5, pol30-Ung1E3 (yeast, UniProt P15873 1-258, IDCL DIDADFLKIEEL to DFDYDELKIEEL)
T5 construct: PCNA (POL30), yeast; source: yeast two-hybrid fusion (pAD-GAL4, strain YRG2)
T5 sequence: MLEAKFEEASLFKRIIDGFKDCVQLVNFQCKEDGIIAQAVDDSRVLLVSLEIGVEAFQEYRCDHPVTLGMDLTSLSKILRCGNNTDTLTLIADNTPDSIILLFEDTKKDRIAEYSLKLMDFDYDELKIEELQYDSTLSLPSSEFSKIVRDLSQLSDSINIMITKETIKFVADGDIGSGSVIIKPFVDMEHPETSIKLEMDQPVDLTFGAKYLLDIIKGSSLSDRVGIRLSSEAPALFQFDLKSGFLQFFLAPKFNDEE

Measured: binding

B1: Ung1 (natural protein, yeast, UniProt P12887 1-359, looked up)
chain: MWCMRRLPTNSVMTVARKRKQTTIEDFFGTKKSTNEAPNKKGKSGATFMTITNGAAIKTETKAVAKEANTDKYPANSNAKDVYSKNLSSNLRTLLSLELETIDDSWFPHLMDEFKKPYFVKLKQFVTKEQADHTVFPPAKDIYSWTRLTPFNKVKVVIIGQDPYHNFNQAHGLAFSVKPPTPAPPSLKNIYKELKQEYPDFVEDNKVGDLTHWASQGVLLLNTSLTVRAHNANSHSKHGWETFTKRVVQLLIQDREADGKSLVFLLWGNNAIKLVESLLGSTSVGSGSKYPNIMVMKSVHPSPLSASRGFFGTNHFKMINDWLYNTRGEKMIDWSVVPGTSLREVQEANARLESESKDP
notes: Ung1 (base excision repair), yeast; also called pBD-Ung1; source: yeast two-hybrid fusion (pBD-GAL4, strain YRG2)
not listed: pol30-Ung1E3
binds: all other assays above

B2: Msh6 (natural protein, yeast, UniProt Q03834 1-1242, looked up)
chain: MAPATPKTSKTAHFENGSTSSQKKMKQSSLLSFFSKQVPSGTPSKKVQKPTPATLENTATDKITKNPQGGKTGKLFVDVDEDNDLTIAEETVSTVRSDIMHSQEPQSDTMLNSNTTEPKSTTTDEDLSSSQSRRNHKRRVNYAESDDDDSDTTFTAKRKKGKVVDSESDEDEYLPDKNDGDEDDDIADDKEDIKGELAEDSGDDDDLISLAETTSKKKFSYNTSHSSSPFTRNISRDNSKKKSRPNQAPSRSYNPSHSQPSATSKSSKFNKQNEERYQWLVDERDAQRRPKSDPEYDPRTLYIPSSAWNKFTPFEKQYWEIKSKMWDCIVFFKKGKFFELYEKDALLANALFDLKIAGGGRANMQLAGIPEMSFEYWAAQFIQMGYKVAKVDQRESMLAKEMREGSKGIVKRELQCILTSGTLTDGDMLHSDLATFCLAIREEPGNFYNETQLDSSTIVQKLNTKIFGAAFIDTATGELQMLEFEDDSECTKLDTLMSQVRPMEVVMERNNLSTLANKIVKFNSAPNAIFNEVKAGEEFYDCDKTYAEIISSEYFSTEEDWPEVLKSYYDTGKKVGFSAFGGLLYYLKWLKLDKNLISMKNIKEYDFVKSQHSMVLDGITLQNLEIFSNSFDGSDKGTLFKLFNRAITPMGKRMMKKWLMHPLLRKNDIESRLDSVDSLLQDITLREQLEITFSKLPDLERMLARIHSRTIKVKDFEKVITAFETIIELQDSLKNNDLKGDVSKYISSFPEGLVEAVKSWTNAFERQKAINENIIVPQRGFDIEFDKSMDRIQELEDELMEILMTYRKQFKCSNIQYKDSGKEIYTIEIPISATKNVPSNWVQMAANKTYKRYYSDEVRALARSMAEAKEIHKTLEEDLKNRLCQKFDAHYNTIWMPTIQAISNIDCLLAITRTSEYLGAPSCRPTIVDEVDSKTNTQLNGFLKFKSLRHPCFNLGATTAKDFIPNDIELGKEQPRLGLLTGANAAGKSTILRMACIAVIMAQMGCYVPCESAVLTPIDRIMTRLGANDNIMQGKSTFFVELAETKKILDMATNRSLLVVDELGRGGSSSDGFAIAESVLHHVATHIQSLGFFATHYGTLASSFKHHPQVRPLKMSILVDEATRNVTFLYKMLEGQSEGSFGMHVASMCGISKEIIDNAQIAADNLEHTSRLVKERDLAANNLNGEVVSVPGGLQSDFVRIAYGDGLKNTKLGSGEGVLNYDWNIKRNVLKSLFSIIDDLQS
notes: Msh6 (mismatch repair), yeast; also called pBD-Msh6; source: yeast two-hybrid fusion (pBD-GAL4, strain YRG2)
binds: pol30-Ung1E3 | pol30-Rad27L1 | pol30-Pol32E9
